Test results reported in publication PMC6838061.
Results are given in words; binding and its absence hold for the method and conditions named. In cells and extracts the contact can be indirect. Some results given as binding are weak or reduced against the parent protein; the word gives no strength.

The chains behind the UniProt entries cited, without tags or fusion partners.
UniProt Q13547: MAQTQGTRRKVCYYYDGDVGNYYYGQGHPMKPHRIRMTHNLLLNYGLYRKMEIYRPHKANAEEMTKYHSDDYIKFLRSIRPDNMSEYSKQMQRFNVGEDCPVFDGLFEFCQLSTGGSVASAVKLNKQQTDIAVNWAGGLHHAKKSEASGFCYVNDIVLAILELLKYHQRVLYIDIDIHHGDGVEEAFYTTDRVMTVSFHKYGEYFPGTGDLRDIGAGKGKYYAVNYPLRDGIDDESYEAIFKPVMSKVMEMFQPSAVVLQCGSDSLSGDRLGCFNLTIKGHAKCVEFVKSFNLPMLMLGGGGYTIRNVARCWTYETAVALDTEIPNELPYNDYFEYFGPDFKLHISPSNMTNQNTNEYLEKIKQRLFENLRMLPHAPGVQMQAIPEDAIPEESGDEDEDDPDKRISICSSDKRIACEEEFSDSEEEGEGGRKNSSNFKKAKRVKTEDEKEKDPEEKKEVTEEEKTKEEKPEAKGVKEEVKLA

Target: T1, Dishevelled-1 (DVL-1) (human (endogenous in MDA-MB-231 and MDA-MB-468)) (UniProt O14640)
T1 sequence: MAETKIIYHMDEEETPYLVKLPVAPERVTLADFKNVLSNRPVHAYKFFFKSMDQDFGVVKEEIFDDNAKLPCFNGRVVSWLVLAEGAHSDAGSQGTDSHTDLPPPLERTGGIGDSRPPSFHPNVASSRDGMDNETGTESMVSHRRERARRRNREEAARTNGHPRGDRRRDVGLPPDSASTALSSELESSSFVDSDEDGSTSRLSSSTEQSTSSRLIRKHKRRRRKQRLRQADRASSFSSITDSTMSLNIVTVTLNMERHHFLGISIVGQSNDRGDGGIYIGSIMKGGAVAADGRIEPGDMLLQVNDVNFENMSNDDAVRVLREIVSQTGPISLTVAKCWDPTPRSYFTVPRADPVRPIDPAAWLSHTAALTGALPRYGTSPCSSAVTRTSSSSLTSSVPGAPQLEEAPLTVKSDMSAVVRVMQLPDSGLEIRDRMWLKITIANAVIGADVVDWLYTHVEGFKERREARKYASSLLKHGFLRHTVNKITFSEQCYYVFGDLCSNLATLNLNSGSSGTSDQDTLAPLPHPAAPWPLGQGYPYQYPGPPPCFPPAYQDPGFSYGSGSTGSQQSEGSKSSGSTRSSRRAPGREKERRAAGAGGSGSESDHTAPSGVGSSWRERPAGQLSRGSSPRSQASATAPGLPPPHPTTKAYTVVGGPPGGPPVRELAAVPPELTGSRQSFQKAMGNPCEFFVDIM
Test: co-IP; endogenous DVL-1 precipitated from MDA-MB-231 and MDA-MB-468 cell extracts with 2 ug DVL-1 antibody (D3570; Sigma), 2 hrs/4 °C, Protein A Dynabeads; NP-40 lysis buffer; species-matched IgG as negative control; Western blotting for SIRT-1 and HDAC1

HDAC1 (from UniProt Q13547 1-482) (enzyme)
binding: binds
